Laboratory results from the supplement of paper PMC10849652.
The other results are listed elsewhere or left out.

Protein sequences, listed by entry. Tags and fused reporters are not part of them. Lines headed by an entry give the natural chain unless they say otherwise; changes in a name come on top.
UniProt Q969W1: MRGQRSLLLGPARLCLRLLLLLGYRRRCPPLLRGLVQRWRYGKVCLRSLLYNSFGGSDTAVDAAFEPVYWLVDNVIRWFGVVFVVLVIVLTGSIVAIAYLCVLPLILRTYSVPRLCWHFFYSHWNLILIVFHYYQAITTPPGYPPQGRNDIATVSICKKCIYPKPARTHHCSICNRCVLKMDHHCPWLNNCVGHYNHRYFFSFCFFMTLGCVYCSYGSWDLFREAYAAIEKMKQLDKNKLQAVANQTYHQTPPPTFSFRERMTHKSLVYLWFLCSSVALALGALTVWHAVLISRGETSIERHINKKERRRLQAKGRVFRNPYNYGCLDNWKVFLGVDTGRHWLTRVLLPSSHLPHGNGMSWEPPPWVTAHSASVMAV
UniProt Q8IUH4: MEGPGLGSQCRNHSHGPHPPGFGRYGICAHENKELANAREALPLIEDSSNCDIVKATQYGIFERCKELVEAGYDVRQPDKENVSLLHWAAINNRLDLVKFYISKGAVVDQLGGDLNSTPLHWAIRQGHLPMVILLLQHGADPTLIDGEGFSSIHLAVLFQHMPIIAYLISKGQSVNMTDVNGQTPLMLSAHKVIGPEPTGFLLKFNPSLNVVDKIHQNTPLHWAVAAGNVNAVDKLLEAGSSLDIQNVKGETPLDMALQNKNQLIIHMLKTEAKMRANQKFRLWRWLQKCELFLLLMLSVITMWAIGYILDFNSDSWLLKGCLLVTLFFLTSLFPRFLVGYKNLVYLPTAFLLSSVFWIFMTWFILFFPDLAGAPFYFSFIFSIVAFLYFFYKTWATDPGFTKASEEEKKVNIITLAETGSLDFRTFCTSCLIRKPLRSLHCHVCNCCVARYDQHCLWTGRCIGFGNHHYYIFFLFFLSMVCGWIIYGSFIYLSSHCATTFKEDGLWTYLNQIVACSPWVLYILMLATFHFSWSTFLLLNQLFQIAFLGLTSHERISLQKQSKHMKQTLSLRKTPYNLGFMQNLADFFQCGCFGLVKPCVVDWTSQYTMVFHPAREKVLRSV
UniProt Q9Y548: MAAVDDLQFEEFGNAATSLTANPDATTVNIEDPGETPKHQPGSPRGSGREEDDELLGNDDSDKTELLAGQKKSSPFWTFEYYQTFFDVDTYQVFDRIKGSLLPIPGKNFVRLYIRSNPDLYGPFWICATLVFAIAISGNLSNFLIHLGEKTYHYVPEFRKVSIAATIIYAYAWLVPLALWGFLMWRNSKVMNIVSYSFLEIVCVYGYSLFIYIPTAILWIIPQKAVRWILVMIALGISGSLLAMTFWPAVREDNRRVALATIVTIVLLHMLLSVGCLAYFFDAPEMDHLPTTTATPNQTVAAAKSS
UniProt P17010: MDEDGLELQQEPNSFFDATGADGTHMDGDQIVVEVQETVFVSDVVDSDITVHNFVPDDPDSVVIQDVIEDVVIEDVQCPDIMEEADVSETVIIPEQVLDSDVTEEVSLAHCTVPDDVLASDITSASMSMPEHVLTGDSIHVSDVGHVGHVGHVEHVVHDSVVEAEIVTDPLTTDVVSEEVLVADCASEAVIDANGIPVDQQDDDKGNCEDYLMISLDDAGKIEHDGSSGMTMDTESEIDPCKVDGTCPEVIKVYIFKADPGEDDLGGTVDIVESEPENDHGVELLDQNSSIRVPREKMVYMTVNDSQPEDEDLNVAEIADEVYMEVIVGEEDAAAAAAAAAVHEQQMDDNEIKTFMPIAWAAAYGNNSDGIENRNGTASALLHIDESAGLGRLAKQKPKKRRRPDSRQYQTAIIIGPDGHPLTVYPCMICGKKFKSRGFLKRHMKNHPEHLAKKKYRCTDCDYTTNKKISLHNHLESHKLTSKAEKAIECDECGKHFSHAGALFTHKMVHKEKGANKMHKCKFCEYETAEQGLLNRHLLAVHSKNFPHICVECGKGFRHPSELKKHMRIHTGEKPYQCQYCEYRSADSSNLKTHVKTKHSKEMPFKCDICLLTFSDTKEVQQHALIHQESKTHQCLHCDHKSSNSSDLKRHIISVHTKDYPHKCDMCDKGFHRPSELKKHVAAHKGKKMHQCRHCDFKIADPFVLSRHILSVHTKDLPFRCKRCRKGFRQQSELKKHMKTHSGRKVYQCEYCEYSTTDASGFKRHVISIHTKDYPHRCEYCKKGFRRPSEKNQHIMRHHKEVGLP
UniProt C9J5V9: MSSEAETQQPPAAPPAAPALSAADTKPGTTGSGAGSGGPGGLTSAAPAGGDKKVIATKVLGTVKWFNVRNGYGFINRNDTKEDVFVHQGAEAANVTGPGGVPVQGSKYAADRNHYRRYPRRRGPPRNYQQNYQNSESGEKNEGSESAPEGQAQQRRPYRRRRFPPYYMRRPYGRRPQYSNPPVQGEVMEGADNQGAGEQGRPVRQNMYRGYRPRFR
UniProt O43543: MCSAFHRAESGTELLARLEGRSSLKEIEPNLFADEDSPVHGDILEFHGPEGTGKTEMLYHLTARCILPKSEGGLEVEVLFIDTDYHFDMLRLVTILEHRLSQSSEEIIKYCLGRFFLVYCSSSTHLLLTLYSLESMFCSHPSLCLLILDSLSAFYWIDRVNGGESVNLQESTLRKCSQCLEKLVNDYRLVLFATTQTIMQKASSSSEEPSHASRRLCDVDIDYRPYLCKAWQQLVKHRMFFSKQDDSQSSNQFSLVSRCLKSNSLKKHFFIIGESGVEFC
UniProt Q9BWQ6: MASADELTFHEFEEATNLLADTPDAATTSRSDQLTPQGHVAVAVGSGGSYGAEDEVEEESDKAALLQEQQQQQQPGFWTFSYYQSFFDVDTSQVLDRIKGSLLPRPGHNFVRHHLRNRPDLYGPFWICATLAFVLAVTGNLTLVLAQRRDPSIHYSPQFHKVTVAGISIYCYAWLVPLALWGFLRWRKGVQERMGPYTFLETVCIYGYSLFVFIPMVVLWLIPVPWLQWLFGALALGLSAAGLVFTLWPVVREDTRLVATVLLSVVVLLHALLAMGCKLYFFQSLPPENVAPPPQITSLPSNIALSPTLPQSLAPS
UniProt P58557: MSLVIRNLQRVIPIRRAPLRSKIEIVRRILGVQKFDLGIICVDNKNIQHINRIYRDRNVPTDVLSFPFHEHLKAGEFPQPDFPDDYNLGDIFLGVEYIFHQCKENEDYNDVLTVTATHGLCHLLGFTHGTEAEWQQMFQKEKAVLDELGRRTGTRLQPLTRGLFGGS
UniProt Q13105: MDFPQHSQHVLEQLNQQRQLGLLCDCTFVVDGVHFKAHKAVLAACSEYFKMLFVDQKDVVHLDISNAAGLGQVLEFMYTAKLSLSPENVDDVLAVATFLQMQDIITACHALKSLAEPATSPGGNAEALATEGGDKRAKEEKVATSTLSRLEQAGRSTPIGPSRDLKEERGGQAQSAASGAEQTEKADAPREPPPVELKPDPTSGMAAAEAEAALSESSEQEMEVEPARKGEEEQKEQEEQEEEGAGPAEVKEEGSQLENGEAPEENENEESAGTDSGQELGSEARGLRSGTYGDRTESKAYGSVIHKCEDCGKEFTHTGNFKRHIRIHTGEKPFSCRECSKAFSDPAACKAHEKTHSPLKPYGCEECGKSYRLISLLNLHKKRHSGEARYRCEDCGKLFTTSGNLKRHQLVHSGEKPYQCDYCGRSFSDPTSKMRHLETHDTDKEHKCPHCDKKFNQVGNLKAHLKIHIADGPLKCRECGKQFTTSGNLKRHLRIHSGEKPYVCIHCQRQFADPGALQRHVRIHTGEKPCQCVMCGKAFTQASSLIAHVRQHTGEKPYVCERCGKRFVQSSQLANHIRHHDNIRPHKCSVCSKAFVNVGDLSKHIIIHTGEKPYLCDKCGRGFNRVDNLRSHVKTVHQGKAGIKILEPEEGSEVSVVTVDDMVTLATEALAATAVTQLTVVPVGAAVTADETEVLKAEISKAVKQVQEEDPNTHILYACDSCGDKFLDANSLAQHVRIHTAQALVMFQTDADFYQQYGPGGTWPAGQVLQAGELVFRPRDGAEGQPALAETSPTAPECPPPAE
UniProt P07947, whole entry, looked up: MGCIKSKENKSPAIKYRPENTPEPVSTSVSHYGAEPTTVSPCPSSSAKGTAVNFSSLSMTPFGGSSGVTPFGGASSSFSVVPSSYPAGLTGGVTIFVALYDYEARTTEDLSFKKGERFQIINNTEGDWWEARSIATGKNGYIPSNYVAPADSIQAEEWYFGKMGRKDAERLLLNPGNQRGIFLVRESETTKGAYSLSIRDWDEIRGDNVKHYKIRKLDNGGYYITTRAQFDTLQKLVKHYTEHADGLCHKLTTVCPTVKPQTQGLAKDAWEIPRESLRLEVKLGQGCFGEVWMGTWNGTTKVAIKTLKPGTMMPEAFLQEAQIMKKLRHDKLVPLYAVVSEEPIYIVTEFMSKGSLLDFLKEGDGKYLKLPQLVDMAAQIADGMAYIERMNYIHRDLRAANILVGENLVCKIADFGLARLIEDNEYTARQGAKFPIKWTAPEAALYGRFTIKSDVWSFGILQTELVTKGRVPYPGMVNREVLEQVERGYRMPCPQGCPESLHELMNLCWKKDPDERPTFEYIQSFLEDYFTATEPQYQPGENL
UniProt Q96GY0: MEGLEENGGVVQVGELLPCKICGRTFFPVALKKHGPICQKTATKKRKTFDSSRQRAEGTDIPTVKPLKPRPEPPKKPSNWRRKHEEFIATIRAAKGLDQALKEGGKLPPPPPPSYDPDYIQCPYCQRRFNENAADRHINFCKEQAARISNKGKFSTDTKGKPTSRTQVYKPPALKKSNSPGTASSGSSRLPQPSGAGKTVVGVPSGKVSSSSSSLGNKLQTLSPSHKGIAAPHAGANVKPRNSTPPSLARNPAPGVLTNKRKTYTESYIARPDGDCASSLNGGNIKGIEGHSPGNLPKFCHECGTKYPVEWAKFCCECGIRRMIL
UniProt P47974: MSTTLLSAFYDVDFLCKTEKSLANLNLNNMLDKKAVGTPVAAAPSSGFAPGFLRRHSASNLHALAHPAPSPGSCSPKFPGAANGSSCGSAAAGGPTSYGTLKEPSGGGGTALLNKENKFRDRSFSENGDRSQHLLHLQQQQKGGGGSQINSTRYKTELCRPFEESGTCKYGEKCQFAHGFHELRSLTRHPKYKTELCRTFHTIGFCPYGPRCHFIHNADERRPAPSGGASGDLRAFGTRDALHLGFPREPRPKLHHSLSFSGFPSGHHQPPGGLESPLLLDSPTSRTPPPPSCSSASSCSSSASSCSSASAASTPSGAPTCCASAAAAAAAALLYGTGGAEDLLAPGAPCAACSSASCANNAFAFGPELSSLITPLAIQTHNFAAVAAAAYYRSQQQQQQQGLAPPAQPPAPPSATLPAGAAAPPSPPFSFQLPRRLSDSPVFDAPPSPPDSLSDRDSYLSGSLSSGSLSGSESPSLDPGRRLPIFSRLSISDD
UniProt Q9NP64: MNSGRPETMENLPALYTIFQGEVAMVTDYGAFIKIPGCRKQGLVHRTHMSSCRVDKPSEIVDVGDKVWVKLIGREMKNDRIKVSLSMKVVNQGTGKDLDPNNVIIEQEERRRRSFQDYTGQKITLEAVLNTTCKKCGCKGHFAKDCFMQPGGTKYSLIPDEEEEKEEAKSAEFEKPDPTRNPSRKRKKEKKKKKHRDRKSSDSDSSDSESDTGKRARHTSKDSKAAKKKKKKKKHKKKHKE
UniProt Q9HCC9: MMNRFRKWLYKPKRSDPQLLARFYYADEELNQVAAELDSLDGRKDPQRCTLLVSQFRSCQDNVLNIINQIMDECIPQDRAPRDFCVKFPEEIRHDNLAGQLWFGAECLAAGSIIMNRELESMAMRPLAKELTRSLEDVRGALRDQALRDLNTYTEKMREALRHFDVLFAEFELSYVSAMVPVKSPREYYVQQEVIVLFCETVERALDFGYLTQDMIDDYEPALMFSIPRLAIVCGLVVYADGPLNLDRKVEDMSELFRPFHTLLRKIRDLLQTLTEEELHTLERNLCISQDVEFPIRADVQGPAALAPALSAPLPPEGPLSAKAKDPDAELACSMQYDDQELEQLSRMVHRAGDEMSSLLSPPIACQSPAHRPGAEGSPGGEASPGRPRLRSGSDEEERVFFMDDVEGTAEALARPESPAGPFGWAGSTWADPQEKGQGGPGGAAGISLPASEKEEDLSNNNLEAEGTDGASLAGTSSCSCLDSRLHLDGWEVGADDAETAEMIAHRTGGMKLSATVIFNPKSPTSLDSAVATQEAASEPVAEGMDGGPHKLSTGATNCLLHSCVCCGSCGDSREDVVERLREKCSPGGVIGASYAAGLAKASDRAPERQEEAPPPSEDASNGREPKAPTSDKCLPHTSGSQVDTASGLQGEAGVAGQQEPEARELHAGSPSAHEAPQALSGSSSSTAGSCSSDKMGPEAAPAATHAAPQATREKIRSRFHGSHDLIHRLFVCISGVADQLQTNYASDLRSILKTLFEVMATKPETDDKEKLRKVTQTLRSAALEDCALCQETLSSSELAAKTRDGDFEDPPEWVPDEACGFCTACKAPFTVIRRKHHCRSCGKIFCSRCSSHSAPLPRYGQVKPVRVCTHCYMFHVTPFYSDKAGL

Experiments:
Assay in all cases: log2 fold change, soluble protein after heating vs DMSO (PISA); higher = thermal stabilisation; K562 cells, 10 uM, 30 min; active = over 0.2 and 3.5 SD of the protein, either way, in both replicates (recomputed)
[1] = compound: CC1=C(C=C(C=C1)NC(=O)C2=CC(=CC=C2)C(C)(C)C#N)NC3=CC4=C(C=C3)N=CN(C4=O)C
Outline: (§1)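 K562 cells at 2×10^6 cells/mL were given 10 μM compound for 30 min. Aliquots then went through 3 min of heating across 48°C-58°C, were pooled, and were extracted in PBS with 0.5% NP-40 at 4°C, and the supernatant after 21,000xg for 90 min was quantified by TMTpro 16plex LC-MS/MS with channel sums equalised. Thermal stability relative to control samples, from duplicates, is given as log2 fold change.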

[2] = compound: CC1=C(C=C(C=C1)NC(=O)C2=CC(=CC=C2)N(C)C)NC(=O)C3=CC=C(C=C3)O
Outline: as §1

[3] = compound: CC1=CC=C(C=C1)SC2=C3C=C(SC3=CN=C2)C(=O)N
Outline: as §1

[4] = compound: CC1=NC(=CC=C1)C2=C(N=C(N2)C(C)(C)C)C3=CC4=NC=CN=C4C=C3
Outline: as §1

Nexturastat A = compound: CCCCN(Cc1ccc(C(=O)NO)cc1)C(=O)Nc1ccccc1 [Nexturastat A]
Outline: as §1

[5] = compound: CCCS(=O)(=O)Nc1ccc(F)c(C(=O)c2c[nH]c3ncc(Cl)cc23)c1F
Outline: as §1

givinostat = compound: CCN(CC)Cc1ccc2cc(COC(=O)Nc3ccc(C(=O)NO)cc3)ccc2c1 [givinostat]
Outline: as §1

barasertib = compound: CCN(CCCOc1ccc2c(Nc3cc(CC(=O)Nc4cccc(F)c4)[nH]n3)ncnc2c1)CCOP(=O)(O)O [barasertib]
Outline: as §1

[6] = compound: CC[C@@H]1C(=O)N(C)c2cnc(Nc3ccc(C(=O)NC4CCN(C)CC4)cc3OC)nc2N1C1CCCC1
Outline: as §1

volasertib = compound: CC[C@@H]1C(=O)N(C)c2cnc(Nc3ccc(C(=O)N[C@H]4CC[C@H](N5CCN(CC6CC6)CC5)CC4)cc3OC)nc2N1C(C)C [volasertib]
Outline: as §1

[7] = compound: CC[C@H](C)N1C=C(C2=C(C=C(C=C21)C3=CN=C(C=C3)N4CCNCC4)C(=O)NCC5=C(C=C(NC5=O)C)C)C
Outline: as §1

epoxomicin = compound: CC[C@H](C)[C@@H](C(=O)N[C@@H]([C@@H](C)O)C(=O)N[C@@H](CC(C)C)C(=O)[C@]1(CO1)C)NC(=O)[C@H]([C@@H](C)CC)N(C)C(=O)C [epoxomicin]
Outline: as §1

[8] = compound: CCn1c(C(=O)N(C2CC2)C2CC2)cc2c3c(ncn3C)c(Nc3cc(C)n(C)n3)nc21
Outline: as §1

rosiglitazone = compound: CN(CCOC1=CC=C(C=C1)C[C@H]2C(=O)NC(=O)S2)C3=CC=CC=N3 (racemic) [rosiglitazone]
Outline: as §1

[9] = compound: CN1C2=C(C3=C1C(=O)N(N=C3)CC4=CC(=CC=C4)N)SC(=C2)S(=O)C
Outline: as §1

vemurafenib = compound: CCCS(=O)(=O)Nc1ccc(F)c(C(=O)c2c[nH]c3ncc(-c4ccc(Cl)cc4)cc23)c1F [vemurafenib]
Outline: as §1

[10] = compound: CN(C)CC(=O)Nc1ccc2[nH]c(=O)c3ccccc3c2c1
Outline: as §1

[11] = compound: CCCc1cc(C)[nH]c(=O)c1CNC(=O)c1cc(-c2ccnc(N3CCN(C)CC3)c2)cc2c1cnn2C(C)C
Outline: as §1

[12] = compound: CCn1cc(-c2ccnc3[nH]c(-c4cccc(CN(C)C)c4)cc23)c(-c2ccc(NC(=O)N(C)C)cc2)n1
Outline: as §1

[13] = compound: CN1CCC(CNc2ccc3ncc(-c4cccc(OC(F)(F)F)c4)n3n2)CC1
Outline: as §1

Measured: log2 fold change

ZBTB7A (UniProt O95365)
inactive: [1] -0.046 | [2] 0.018 | [3] -0.016 | [4] 0.092 | Nexturastat A 0.023 | [5] -0.033 | givinostat 0.007 | barasertib -0.024 | [6] 0.082 | volasertib 0.208 | [7] 0.081 | epoxomicin -0.023 | [8] 0.056 | rosiglitazone 0.058 | [9] 0.224

ZDHHC16 (UniProt Q969W1)
inactive: [1] -0.222 | vemurafenib -0.139 | givinostat -0.095 | [6] -0.006 | [7] -0.068 | [8] 0.029 | [10] -0.143

XIRP2 isoform 8 (UniProt A4UGR9)
inactive: [1] -0.068 | [3] -0.117 | [5] -0.067 | [11] -0.024 | givinostat -0.109 | barasertib 0.024 | [6] -0.145 | volasertib 0.095 | [7] -0.048 | [8] -0.013 | [12] 0.096 | rosiglitazone -0.033 | [9] 0.064 | [13] 0.055

ZDHHC13 (UniProt Q8IUH4)
inactive: [1] 0.04 | [2] -0.058 | Nexturastat A 0.072 | givinostat 0.018 | [6] -0.332 | epoxomicin 0.035 | [8] 0.287

ZFR (UniProt Q96KR1)
inactive: [1] 0.07 | [2] -0.058 | [4] 0.091 | Nexturastat A 0.195 | vemurafenib -0.071 | [11] 0.009 | givinostat 0.058 | barasertib -0.118 | [6] 0.116 | [7] 0.114 | epoxomicin -0.167 | [8] -0.144 | [12] 0.051 | [10] -0.046 | rosiglitazone -0.142 | [9] 0.193 | [13] 0.122

ZFHX4 isoform 5 (UniProt Q86UP3)
inactive: [1] -0.051 | [4] 0.066 | givinostat -0.076 | [7] 0.099 | [8] -0.029

YIPF1 (UniProt Q9Y548)
inactive: [1] -0.23 | [3] -0.018 | vemurafenib -0.089 | [5] 0.024 | [11] 0.081 | givinostat 0.004 | barasertib -0.093 | [6] 0.062 | volasertib -0.018 | [7] -0.034 | [8] 0.027 | [10] -0.049 | rosiglitazone 0.09

ZKSCAN8 (UniProt Q15776)
inactive: [1] 0.056 | [2] 0.001 | [3] -0.227 | Nexturastat A 0.248 | vemurafenib -0.258 | [5] -0.166 | [6] 0.034 | volasertib -0.027 | epoxomicin -0.184 | [12] 0.237 | [10] -0.028 | [9] 0.392 | [13] -0.136

ZFX isoform 3 (UniProt P17010)
inactive: vemurafenib -0.075 | [10] 0.278

YBX1 (UniProt C9J5V9)
inactive: [4] -0.03

ZDHHC6 (UniProt Q9H6R6)
inactive: [3] 0.034 | Nexturastat A -0.06 | [5] -0.048 | [6] -0.114 | volasertib -0.094 | epoxomicin -0.052 | [12] -0.292 | [13] 0.011

XRCC2 (UniProt O43543)
inactive: [3] 0.075 | Nexturastat A 0.036 | [5] 0.01 | [11] 0.063 | givinostat 0.098 | volasertib 0.005 | [7] 0.017 | epoxomicin -0.023 | [8] -0.042 | [9] -0.057

XRN1 (UniProt Q8IZH2)
inactive: [2] 0.042 | [4] -0.311 | Nexturastat A 0.003 | vemurafenib 0.092 | [11] -0.212 | barasertib 0.287 | [6] -0.03 | [7] 0.038 | epoxomicin -0.129 | [12] 0.087 | [10] -0.139 | rosiglitazone 0.064 | [9] 0.367 | [13] 0.085

YIPF2 (UniProt Q9BWQ6)
inactive: [2] 0.005 | Nexturastat A -0.034 | barasertib 0.105 | [7] 0.17 | epoxomicin -0.002 | rosiglitazone -0.092

YBEY (UniProt P58557)
inactive: [2] -0.005 | givinostat -0.349 | [8] 0.071 | [12] -0.72 | [13] -0.796

ZDHHC12 isoform 3 (UniProt Q96GR4)
inactive: [3] -0.012 | [4] -0.082 | vemurafenib -0.24 | [5] -0.008 | volasertib 0.043 | [10] -0.028 | [9] -0.257

2 neighbouring records out of the list so far:
XRCC2 (UniProt O43543)
inactive: [3] 0.075 | Nexturastat A 0.036 | [5] 0.01 | [11] 0.063 | givinostat 0.098 | volasertib 0.005 | [7] 0.017 | epoxomicin -0.023 | [8] -0.042 | [9] -0.057

XRN1 (UniProt Q8IZH2)
inactive: [2] 0.042 | [4] -0.311 | Nexturastat A 0.003 | vemurafenib 0.092 | [11] -0.212 | barasertib 0.287 | [6] -0.03 | [7] 0.038 | epoxomicin -0.129 | [12] 0.087 | [10] -0.139 | rosiglitazone 0.064 | [9] 0.367 | [13] 0.085

(list continues)

ZBTB17 isoform 2 (UniProt Q13105)
inactive: [1] 0.018 | [11] -0.158 | givinostat -0.011 | barasertib -0.048

YES1 (UniProt P07947)
inactive: [2] 0.037 | [3] 0.03 | [4] 0.008 | Nexturastat A 0.142 | vemurafenib -0.159 | [5] -0.217 | [11] 0.075 | givinostat 0.016 | barasertib -0.006 | [6] 0.129 | volasertib -0.038 | [7] 0.112 | epoxomicin 0.009 | [12] -0.241 | [10] -0.075 | [9] 0.053 | [13] -0.326

ZC2HC1A (UniProt Q96GY0)
inactive: [2] 0.095 | [3] 0.016 | [4] -0.148 | Nexturastat A 0.069 | vemurafenib 0.005 | [5] -0.112 | [11] 0.06 | givinostat 0.035 | barasertib -0.027 | [6] 0.103 | volasertib 0.22 | [7] -0.042 | epoxomicin 0.093 | [8] -0.01 | [12] 0.305 | [10] 0.016 | rosiglitazone -0.037 | [9] 0.049 | [13] -0.285

Retrieved one by one from the list above (two):
YBX1 (UniProt C9J5V9)
inactive: [4] -0.03

ZFX isoform 3 (UniProt P17010)
inactive: vemurafenib -0.075 | [10] 0.278

Following part:

ZFP36L2 (UniProt P47974)
inactive: [11] -0.036 | givinostat 0.149 | [8] -0.316

ZCCHC17 (UniProt Q9NP64)
inactive: [1] -0.065 | vemurafenib -0.396 | [10] -0.059

ZFYVE28 (UniProt Q9HCC9)
inactive: [3] -0.043 | [4] 0.079 | [5] 0.052 | givinostat -0.001 | barasertib 0.053 | volasertib 0.033 | [8] -0.053 | rosiglitazone -0.091
